# Some of the results follow. Single values are uncertain, as repeats are few or missing.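 Cells were imaged in 1,536-well plates, and nuclei stained with an antibody against cleaved PARP were counted against all DNA-stained nuclei to give the apoptosis fraction. Screening doses were chosen to leave most cells alive, and resting and induced cleaved-PARP levels differ strongly between cell lines.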
# What was measured:
# Test in all cases: cleaved PARP positive nuclei fraction relative to DMSO control; melanoma cells; higher = more apoptosis
# Settings in all cases: library dose: low library concentration; 72 h
# MZ2-MEL = tested on: MZ2-MEL
# MeWo = tested on: MeWo
# RPMI7951 = tested on: RPMI7951
# RVH-421 = tested on: RVH-421
# SkMel28 = tested on: SkMel28
# SkMel2 = tested on: SkMel2
# SkMel30 = tested on: SkMel30
# SkMel5 = tested on: SkMel5
# UACC257 = tested on: UACC257
# UACC62 = tested on: UACC62
SMILES,cleaved PARP positive nuclei fraction (MZ2-MEL),cleaved PARP positive nuclei fraction (MeWo),cleaved PARP positive nuclei fraction (RPMI7951),cleaved PARP positive nuclei fraction (RVH-421),cleaved PARP positive nuclei fraction (SkMel28),cleaved PARP positive nuclei fraction (SkMel2),cleaved PARP positive nuclei fraction (SkMel30),cleaved PARP positive nuclei fraction (SkMel5),cleaved PARP positive nuclei fraction (UACC257),cleaved PARP positive nuclei fraction (UACC62)
"COCC[n+]1c2c(n(Cc3cnccn3)c1C)C(=O)c1ccccc1C2=O + CO[C@@H]1[C@H](N(C)C(=O)c2ccccc2)C[C@H]2O[C@]1(C)n1c3ccccc3c3c4c(c5c6ccccc6n2c5c31)C(=O)NC4 [Midostaurin] (first compound 0.0004 µM, partner dose 0.08 µM)",621%,257%,163%,271%,93%,273%,88.4%,117%,88.6%,51.2%
"C[C@]1(c2nc3c(C(N)=O)cccc3[nH]2)CCCN1 [Veliparib] + Cc1ccc(NC(=O)c2cccc(N(C)C)c2)cc1NC(=O)c1ccc(O)cc1 [ZM336372] (first compound 1.4 µM, partner dose 2 µM)",126%,61.3%,299%,52.1%,123%,75.6%,70.5%,69.5%,135%,197%
"CC(=O)c1c(C)c2cnc(Nc3ccc(N4CCNCC4)cn3)nc2n(C2CCCC2)c1=O [palbociclib] + Cn1cncc1[C@@](N)(c1ccc(Cl)cc1)c1ccc2c(c1)c(-c1cccc(Cl)c1)cc(=O)n2C [tipifarnib] (first compound 0.04 µM, partner dose 0.01 µM)",136%,49.5%,71.5%,224%,130%,76.7%,103%,195%,83.8%,212%
"Cn1nnc2c(C(N)=O)ncn2c1=O [temozolomide] + CC1(C)NC(=O)N(c2ccc([N+](=O)[O-])c(C(F)(F)F)c2)C1=O [nilutamide] (first compound 2 µM, partner dose 1 µM)",54.3%,155%,127%,143%,104%,73.3%,73.6%,146%,76.7%,149%
"COCC[n+]1c2c(n(Cc3cnccn3)c1C)C(=O)c1ccccc1C2=O + NC(=O)Nc1cc(-c2cccc(F)c2)sc1C(=O)N[C@H]1CCCNC1 [AZD7762] (first compound 0.0004 µM, partner dose 0.02 µM)",142%,133%,159%,131%,55.5%,141%,78.6%,125%,71%,46%
"Cn1nnc2c(C(N)=O)ncn2c1=O [temozolomide] + Cc1cc(N2CCOCC2)cc2[nH]c(-c3c(NC[C@@H](O)c4cccc(Cl)c4)cc[nH]c3=O)nc12 [BMS536924] (first compound 2 µM, partner dose 0.2 µM)",219%,75.4%,117%,68.9%,33.4%,41.1%,320%,139%,86.1%,53.7%
"COc1cc(Nc2ncc(F)c(Nc3ccc4c(n3)NC(=O)C(C)(C)O4)n2)cc(OC)c1OC [Tamatinib] + CN(NC(=O)CC(=O)NN(C)C(=S)c1ccccc1)C(=S)c1ccccc1 [STA4783] (first compound 0.4 µM, partner dose 0.006 µM)",198%,143%,55.8%,95.1%,71.1%,55.7%,127%,94.3%,119%,186%
"OCc1c[nH]c2ccccc12 [Indole-3-carbinol] + CCc1ccc(CCOc2ccc(CC3SC(=O)NC3=O)cc2)nc1 [pioglitazone] (first compound 0.8 µM, partner dose 2 µM)",64.3%,86.2%,82.9%,56.6%,180%,73.5%,114%,85.8%,757%,116%
"CC(=O)c1c(C)c2cnc(Nc3ccc(N4CCNCC4)cn3)nc2n(C2CCCC2)c1=O [palbociclib] + Cc1cc([N+](=O)[O-])ccc1NS(=O)(=O)c1cc(Cl)ccc1Cl [FH535] (first compound 0.04 µM, partner dose 1 µM)",109%,61.4%,47.2%,26.9%,124%,16.9%,128%,102%,265%,94.8%
"C[C@@H]1CCN(C(=O)CC#N)C[C@@H]1N(C)c1ncnc2[nH]ccc12 + Cn1cncc1[C@@](N)(c1ccc(Cl)cc1)c1ccc2c(c1)c(-c1cccc(Cl)c1)cc(=O)n2C [tipifarnib] (first compound 1 µM, partner dose 0.01 µM)",54.4%,52.2%,50.3%,91.1%,108%,195%,61%,45.9%,49%,201%
"OCc1c[nH]c2ccccc12 [Indole-3-carbinol] + Oc1cc(-c2nc(-c3ccccc3)[nH]c2-c2ccncc2)ccc1Cl [L779450] (first compound 0.8 µM, partner dose 0.2 µM)",38%,37%,110%,153%,113%,86.4%,267%,77.7%,255%,133%
"CC1(C)NC(=O)N(c2ccc([N+](=O)[O-])c(C(F)(F)F)c2)C1=O [nilutamide] + CN(C)S(=O)(=O)c1ccc2c(c1)/C(=C/c1cc3c([nH]1)CCCC3)C(=O)N2 [SU6656] (first compound 1 µM, partner dose 0.4 µM)",217%,216%,210%,110%,62.4%,73.6%,57.3%,138%,84.2%,92.5%
"Cc1cc(N2CCOCC2)cc2[nH]c(-c3c(NC[C@@H](O)c4cccc(Cl)c4)cc[nH]c3=O)nc12 + CN(NC(=O)CC(=O)NN(C)C(=S)c1ccccc1)C(=S)c1ccccc1 [STA4783] (first compound 0.2 µM, partner dose 0.006 µM)",93%,67.8%,57.5%,130%,197%,55.1%,101%,90.4%,130%,194%
"Cc1nc(Nc2ncc(C(=O)Nc3c(C)cccc3Cl)s2)cc(N2CCN(CCO)CC2)n1 [dasatanib] + CC(C)(C)c1cnc(CSc2cnc(NC(=O)C3CCNCC3)s2)o1 [SNS-032] (first compound 0.004 µM, partner dose 0.01 µM)",392%,111%,171%,80.6%,80.9%,158%,125%,97.9%,190%,73.2%
"O=C(CCCCCCC(=O)Nc1ccccc1)NO [vorinostat] + C[C@@H]1CCN(C(=O)CC#N)C[C@@H]1N(C)c1ncnc2[nH]ccc12 [CP690550] (first compound 0.08 µM, partner dose 1 µM)",190%,111%,59.8%,44.2%,247%,115%,103%,44.3%,59.6%,91.3%
"C[C@]1(c2nc3c(C(N)=O)cccc3[nH]2)CCCN1 [Veliparib] + NC(=O)Nc1cc(-c2cccc(F)c2)sc1C(=O)N[C@H]1CCCNC1 [AZD7762] (first compound 1.4 µM, partner dose 0.02 µM)",86.3%,57.6%,67.3%,34.8%,51.3%,50.8%,158%,81%,56.6%,207%
"C[C@]1(c2nc3c(C(N)=O)cccc3[nH]2)CCCN1 [Veliparib] + OCCn1cc(-c2cnc3nnn(Cc4ccc5ncccc5c4)c3n2)cn1 [PF04217903] (first compound 1.4 µM, partner dose 1 µM)",258%,101%,105%,40.4%,29.5%,262%,70.9%,122%,82.1%,88%
"CC(=O)c1c(C)c2cnc(Nc3ccc(N4CCNCC4)cn3)nc2n(C2CCCC2)c1=O [palbociclib] + CC(C)(C)c1cnc(CSc2cnc(NC(=O)C3CCNCC3)s2)o1 [SNS-032] (first compound 0.04 µM, partner dose 0.01 µM)",98.5%,233%,144%,54.6%,320%,58%,72.8%,65.6%,143%,226%
"C#Cc1cccc(Nc2ncnc3cc(OCCOC)c(OCCOC)cc23)c1 [erlotinib] + O=C(O)c1ccc(-c2c[nH]c3ncc(-c4ccccc4)cc23)cc1C1CCCC1 [GSK650394] (first compound 0.8 µM, partner dose 0.16 µM)",84.9%,119%,68.7%,89.2%,63.1%,135%,76.9%,77.7%,159%,97%
"Cn1nnc2c(C(N)=O)ncn2c1=O [temozolomide] + CO[C@@H]1[C@H](N(C)C(=O)c2ccccc2)C[C@H]2O[C@]1(C)n1c3ccccc3c3c4c(c5c6ccccc6n2c5c31)C(=O)NC4 [Midostaurin] (first compound 2 µM, partner dose 0.08 µM)",134%,60.4%,53.2%,264%,44.8%,80.6%,69.7%,67.6%,78.1%,80%
"Nc1cccc2c1CN(C1CCC(=O)NC1=O)C2=O (stereo not given) [lenalidomide] + CC1(C)NC(=O)N(c2ccc([N+](=O)[O-])c(C(F)(F)F)c2)C1=O [nilutamide] (first compound 1 µM, partner dose 1 µM)",53%,101%,41%,51.6%,288%,87.2%,123%,95.7%,74.1%,91.1%
"O=C(Nc1cccc(Cl)c1)Nc1ncc(CCNc2ncnc3ccsc23)s1 + NCC(=O)Nc1ccc(-n2nc(C(F)(F)F)cc2-c2ccc3c(ccc4ccccc43)c2)cc1 [OSU03012] (first compound 0.0008 µM, partner dose 1 µM)",139%,160%,168%,164%,233%,189%,94.7%,62.9%,133%,71.1%

# Reformatted tab-delimited: entries from further up.
SMILES	cleaved PARP positive nuclei fraction (MZ2-MEL)	cleaved PARP positive nuclei fraction (MeWo)	cleaved PARP positive nuclei fraction (RPMI7951)	cleaved PARP positive nuclei fraction (RVH-421)	cleaved PARP positive nuclei fraction (SkMel28)	cleaved PARP positive nuclei fraction (SkMel2)	cleaved PARP positive nuclei fraction (SkMel30)	cleaved PARP positive nuclei fraction (SkMel5)	cleaved PARP positive nuclei fraction (UACC257)	cleaved PARP positive nuclei fraction (UACC62)
CC1(C)NC(=O)N(c2ccc([N+](=O)[O-])c(C(F)(F)F)c2)C1=O [nilutamide] + CN(C)S(=O)(=O)c1ccc2c(c1)/C(=C/c1cc3c([nH]1)CCCC3)C(=O)N2 [SU6656] (first compound 1 µM, partner dose 0.4 µM)	217%	216%	210%	110%	62.4%	73.6%	57.3%	138%	84.2%	92.5%
O=C(Nc1cccc(Cl)c1)Nc1ncc(CCNc2ncnc3ccsc23)s1 + NCC(=O)Nc1ccc(-n2nc(C(F)(F)F)cc2-c2ccc3c(ccc4ccccc43)c2)cc1 [OSU03012] (first compound 0.0008 µM, partner dose 1 µM)	139%	160%	168%	164%	233%	189%	94.7%	62.9%	133%	71.1%
